Publication PMC6375878
Results are given in words; binding and its absence hold for the method and conditions named. In cells and extracts the contact can be indirect. Some entries that bind do so weakly or less than the wild type.

By UniProt entry, the sequences of proteins in these tests, tags left out. Residues count along the entry.
UniProt Q9BZS1, residues 1-417: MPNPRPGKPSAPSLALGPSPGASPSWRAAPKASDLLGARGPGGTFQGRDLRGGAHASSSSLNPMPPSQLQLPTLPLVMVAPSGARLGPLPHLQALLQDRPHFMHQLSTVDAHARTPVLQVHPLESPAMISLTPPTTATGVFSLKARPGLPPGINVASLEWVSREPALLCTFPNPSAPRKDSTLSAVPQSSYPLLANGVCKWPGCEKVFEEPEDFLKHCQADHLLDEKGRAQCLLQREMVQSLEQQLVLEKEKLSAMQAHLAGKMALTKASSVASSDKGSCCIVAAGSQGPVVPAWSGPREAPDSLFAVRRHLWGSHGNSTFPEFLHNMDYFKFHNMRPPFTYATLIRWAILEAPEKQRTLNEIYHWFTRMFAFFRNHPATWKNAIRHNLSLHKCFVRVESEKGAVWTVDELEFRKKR
UniProt O14744: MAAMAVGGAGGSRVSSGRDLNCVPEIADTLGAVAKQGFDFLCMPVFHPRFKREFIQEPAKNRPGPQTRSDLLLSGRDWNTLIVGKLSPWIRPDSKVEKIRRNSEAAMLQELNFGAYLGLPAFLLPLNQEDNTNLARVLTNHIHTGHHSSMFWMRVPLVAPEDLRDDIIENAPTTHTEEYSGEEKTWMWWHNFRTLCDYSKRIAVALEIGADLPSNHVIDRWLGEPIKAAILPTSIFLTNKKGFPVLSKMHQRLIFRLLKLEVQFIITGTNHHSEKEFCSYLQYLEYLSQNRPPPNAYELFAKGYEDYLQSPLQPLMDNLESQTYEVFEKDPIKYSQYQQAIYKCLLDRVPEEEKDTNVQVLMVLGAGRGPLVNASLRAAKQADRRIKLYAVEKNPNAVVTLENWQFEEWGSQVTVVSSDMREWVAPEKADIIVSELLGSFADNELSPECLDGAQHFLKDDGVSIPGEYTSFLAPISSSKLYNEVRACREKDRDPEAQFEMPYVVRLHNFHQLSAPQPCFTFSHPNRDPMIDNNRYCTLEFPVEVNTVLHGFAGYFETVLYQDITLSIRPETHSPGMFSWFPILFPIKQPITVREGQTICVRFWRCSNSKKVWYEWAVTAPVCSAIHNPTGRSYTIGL

Experiments:
[1] = biological target: HA-FOXP3 (human) (UniProt Q9BZS1); experiment: co-IP; 293T co-transfected with HA-FOXP3 and FLAG-PRMT; lysate with anti-HA or anti-FLAG agarose 2 h at 4°C, washed three times with lysis buffer; blot with anti-Flag M2 or anti-HA peroxidase
[2] = biological target: FOXP3, endogenous in human Tregs (human (endogenous in expanded human Tregs)) (UniProt Q9BZS1); experiment: co-IP; endogenous proteins; expanded human Tregs lysed in RIPA buffer; anti-FOXP3, anti-PRMT5 or IgG overnight at 4°C, Protein G-Sepharose 1 h at 4°C; Western blot

For “FLAG-PRMT5 (from UniProt O14744 1-637) (enzyme)”, the binding [1] was “binds”.
With “PRMT5, endogenous in human Tregs (from UniProt O14744 1-637) (enzyme)” the binding [2] was “binds”.
